Assay: general procedure: peptide synthesis; TBTU/DIEA
Settings: conjugation step, MALDI-MS

**Q.** Which final ms purity does the source give for “3-(1-(N^α -(3-(α,α-dimethylbenzyl)benzenesulphonyl)-(S)-arginyl)-piperid-4-yl)-propionyl-(Gly)4 -Asn-hirudin(54-64)” here?
**A.** >98%
